Results deposited as PubChem BioAssay AID720505 (Drosophila RNAi Screening Center, 2013).
Assay: 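Genes needed for store-operated calcium entry in fly cells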 (primary screen). Cells: Drosophila S2R+ cells. Reagent: long dsRNA against Drosophila genes. Challenge: thapsigargin (2 µM) in calcium-free buffer to empty internal stores, then 2 mM calcium added back. Detection: 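Fluo-4 signal in 384-well plates read on a FLIPR after thapsigargin (2 µM, calcium-free) store depletion and 2 mM calcium add-back; unnormalised mean endpoint per well; screen run twice, selected wells retested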. Reading the numbers: calcium signal and retest calcium signal: higher = more calcium entry after store depletion. Active means: 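Knock-downs counted as hits when calcium entry dropped relative to STIM1 positive and Rho1 negative controls present on each plate; roughly 1500 genes called, with reductions of differing size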. Calls: active = called as lowering calcium entry; inactive = not called.
The deposit covers about 20,000 reagents; this is an unselected part of those with a known target gene and a result. In the full data, about 2,100 (10%) were called active. 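Raw plate signals without normalisation; calls rest on control-based scores that were not deposited; replicate 2 separates called from uncalled poorly.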 The numbers tell different reagents against one gene apart. Names joined by + are all predicted targets of the reagent. Reagent sequences are not shown. Not given: the amount of reagent, the time to read-out.

no.	target	reagent	calcium signal, replicate 1	calcium signal, replicate 2	retest calcium signal, replicate 1	retest calcium signal, replicate 2	Outcome
1	Septin4 (Septin 4)	1	107	86.5			inactive
2	CG8132	1	107	88.4			inactive
3	CG6067	1	253	131			inactive
4	Usp8 (Ubiquitin specific protease 8)	1	220	309			inactive
5	CG31819	1	155	97.7			inactive
6	Gprk2 (G protein-coupled receptor kinase 2)	1	97.9	92.8			inactive
7	Gprk2 (G protein-coupled receptor kinase 2)	2	129	174			inactive
8	PolI (DNA polymerase iota)	1	119	125			inactive
9	PK2-R2 (Pyrokinin 2 receptor 2)	1	114	187			inactive
10	CG32488	1	137	143			inactive
11	CG32488	2	157	88.3			inactive
12	Socs44A (Suppressor of Cytokine Signaling at 44A)	1	152	104			inactive
13	FoxL1 (Forkhead box L1)	1	99.2	106			inactive
14	CG1504	1	156	79.9			inactive
15	GCS2alpha (Glucosidase 2 alpha subunit)	1	90.9	110			inactive
16	Cyp303a1 (Cytochrome P450 303a1)	1	110	107			inactive
17	hoe2 (hoepel2)	1	62.6	174			active
18	CG7694	1	201	134			inactive
19	CG14624	1	154	108			inactive
20	CG6765	1	101	89.9			inactive
21	CG15107	1	130	158			inactive
22	ste24c + CR30461 (retired record)	1	162	88.8			inactive
23	ste24c + CR30461 (retired record)	2	152	135			inactive
24	boly (borrelly)	1	117	129			inactive
25	RpS20 (Ribosomal protein S20)	1	125	115			active
26	Dus1 (Dihydrouridine synthase 1)	1	139	135			inactive
27	CG32374	1	92.1	98.8			inactive
28	CG31441	1	125	108			inactive
29	CG13376	1	94.9	96.8			active
30	pck (pickel)	1	75.1	81.1			inactive
31	Ran	1	40	29.6			active
32	Prosbeta2 (Proteasome beta2 subunit)	1	80.9	69.9			inactive
33	Zasp66 (Z band alternatively spliced PDZ-motif protein 66)	1	78.8	95.4			inactive
34	Zasp66 (Z band alternatively spliced PDZ-motif protein 66)	2	96.9	87.4			inactive
35	CG13065	1	72.9	126			inactive
36	CG15653	1	71.4	174			inactive
37	Tmhs (Tetraspan membrane protein in hair cell stereocilia)	1	154	141			inactive
38	CG5828	1	59.2	167			active
39	Ir68a (Ionotropic receptor 68a)	1	85.9	98.9			inactive
40	Cln7	1	108	69.9			inactive
41	CG3626	1	279	148			inactive
42	Glo1 (Glyoxalase 1)	1	108	131			inactive
43	CG33144	1	144	102			inactive
44	CG33144	2	118	178			inactive
45	bap (bagpipe)	1	91.4	136			inactive
46	Dic1	1	104	84.3			inactive
47	Fibp	1	149	89.5			inactive
48	betaTub97EF (beta-Tubulin at 97EF)	1	196	171			inactive
49	betaTub97EF (beta-Tubulin at 97EF)	2	147	163			inactive
50	betaTub97EF (beta-Tubulin at 97EF)	3	177	205			inactive
51	CG11504	1	132	136			inactive
52	Wnt4 (Wnt oncogene analog 4)	1	67.8	91.8			active
53	Wnt4 (Wnt oncogene analog 4)	2	174	85			inactive
54	Atg13 (Autophagy-related 13)	1	120	158			inactive
55	5-HT7 (5-hydroxytryptamine (serotonin) receptor 7)	1	121	141			inactive
56	CG8562	1	53	68.3			inactive
57	St3 (Sulfotransferase 3)	1	87.5	147			inactive
58	St3 (Sulfotransferase 3)	2	146	104			inactive
59	Acox3 (Acyl-CoA oxidase 3)	1	93.7	106			inactive
60	CG6845	1	135	111			inactive
61	ClC-a (Chloride channel-a)	1	141	129			inactive
62	ClC-a (Chloride channel-a)	2	139	122			inactive
63	ClC-a (Chloride channel-a)	3	111	121			inactive
64	lbe (ladybird early)	1	190	113			inactive
65	eIF3f2 (eukaryotic translation initiation factor 3 subunit f2)	1	110	175			inactive
66	CG1896	1	111	80.3			inactive
67	fsd (fates-shifted)	1	108	162			inactive
68	sens-2 (senseless-2)	1	143	131			inactive
69	sens-2 (senseless-2)	2	151	121			inactive
70	sens-2 (senseless-2)	3	137	81.5			inactive
71	Rcd7 (Reduction in Cnn dots 7)	1	100	146			inactive
72	CG8036	1	156	182			inactive
73	emb (embargoed)	1	96.4	173			inactive
74	CG3184	1	173	125			inactive
75	CG15601	1	119	147			inactive
76	CG3213	1	148	73	84.2	90.4	inactive
77	fu (fused)	1	76.2	71.2			active
78	CG13250	1	103	206			inactive
79	CG9497	1	159	192			inactive
80	CG5388	1	207	168			inactive
81	skl (sickle)	1	86.1	178			inactive
82	Ilp1 (Insulin-like peptide 1)	1	57.4	92.3			active
83	MBD-R2	1	125	107			inactive
84	Nhe1 (Na[+]/H[+] hydrogen exchanger 1)	1	63.5	115			active
85	CG31156	1	147	170			inactive
86	CG31156	2	118	88.1			inactive
87	Atac1 (Ada2a-containing complex component 1)	1	63.6	223			active
88	CG15535	1	147	92.5			inactive
89	onecut	1	146	128			inactive
90	CG15096	1	136	83.6			inactive
91	CG7376	1	119	136			inactive
92	CG2321	1	105	121			inactive
93	CG15649	1	174	86			inactive
94	CaMKI (Calcium/calmodulin-dependent protein kinase I)	1	122	131			inactive
95	betaggt-I (beta subunit of type I geranylgeranyl transferase)	1	166	86.2			inactive
96	AP-1sigma (Adaptor Protein complex 1, sigma subunit)	1	140	123			inactive
97	CG7102	1	115	195			inactive
98	CG7102	2	138	115			inactive
99	Ubi-p63E (Ubiquitin-63E)	1	85.4	182			inactive
100	Grx1t (Glutaredoxin 1, testis-specific)	1	68.6	115			inactive
101	CG4115	1	137	119			inactive
102	CG10804	1	122	172			inactive
103	raw	1	117	99.2			inactive
104	raw	2	97.1	96.3			inactive
105	CG33777	1					active
106	Slip1 (SLo interacting protein 1)	1	114	136			inactive

14 of these entries, set out differently.
CG13065
- calcium signal, replicate 1: 72.9
- calcium signal, replicate 2: 126
- Outcome: inactive

CG15653
- calcium signal, replicate 1: 71.4
- calcium signal, replicate 2: 174
- Outcome: inactive

Tmhs (Tetraspan membrane protein in hair cell stereocilia)
- calcium signal, replicate 1: 154
- calcium signal, replicate 2: 141
- Outcome: inactive

CG5828
- calcium signal, replicate 1: 59.2
- calcium signal, replicate 2: 167
- Outcome: active

Ir68a (Ionotropic receptor 68a)
- calcium signal, replicate 1: 85.9
- calcium signal, replicate 2: 98.9
- Outcome: inactive

Cln7
- calcium signal, replicate 1: 108
- calcium signal, replicate 2: 69.9
- Outcome: inactive

CG3626
- calcium signal, replicate 1: 279
- calcium signal, replicate 2: 148
- Outcome: inactive

Glo1 (Glyoxalase 1)
- calcium signal, replicate 1: 108
- calcium signal, replicate 2: 131
- Outcome: inactive

CG33144 #1
- calcium signal, replicate 1: 144
- calcium signal, replicate 2: 102
- Outcome: inactive

CG33144 #2
- calcium signal, replicate 1: 118
- calcium signal, replicate 2: 178
- Outcome: inactive

bap (bagpipe)
- calcium signal, replicate 1: 91.4
- calcium signal, replicate 2: 136
- Outcome: inactive

Dic1
- calcium signal, replicate 1: 104
- calcium signal, replicate 2: 84.3
- Outcome: inactive

Fibp
- calcium signal, replicate 1: 149
- calcium signal, replicate 2: 89.5
- Outcome: inactive

betaTub97EF (beta-Tubulin at 97EF) #1
- calcium signal, replicate 1: 196
- calcium signal, replicate 2: 171
- Outcome: inactive
